PubChem BioAssay AID686943 – Drosophila RNAi Screening Center, 2013
Test: 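Fly genes whose loss alters ERK activation after insulin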 (primary screen). Cells: Drosophila S2R+ haemocyte-like cells expressing YFP-tagged ERK (Rolled). Reagent: long dsRNA against Drosophila genes. Conditions: insulin stimulation versus unstimulated cells; dose and duration not given. Read-out: 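Antibody staining for doubly phosphorylated ERK divided by ERK-YFP signal, as plate z-scores, in insulin-treated and untreated cells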. Reading the numbers: replicate 1, z-score of dpERK with insulin and replicate 2, z-score of dpERK with insulin: higher = more active ERK per ERK-YFP after insulin; replicate 1, z-score of dpERK under basal conditions: higher = more basal active ERK per ERK-YFP; replicate 1, z-score of ERK-YFP with insulin: higher = more YFP-tagged ERK signal.
In all, the deposit lists about 23,000 reagents; shown is an unselected part of those that have a named target and a result. 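Extra replicates exist only for a retested subset of genes; insulin dose and duration not given; both raised and lowered dpERK matter.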 A plus sign joins genes that one reagent is predicted to hit. No sequences are given here. Not stated in the record: the amount of reagent, the time to read-out.

| Target gene | dsRNA | replicate 1, z-score of dpERK with insulin | replicate 2, z-score of dpERK with insulin | replicate 1, z-score of dpERK under basal conditions | replicate 1, z-score of ERK-YFP with insulin |
| --- | --- | --- | --- | --- | --- |
| Appl (beta amyloid protein precursor-like) | DRSC17728 | 0.49 | 0.3 | 0.3 | -0.45 |
| Ino80 (INO80 complex subunit) | DRSC14760 | -0.15 | 0.26 | -1.27 | 2.6 |
| Ino80 (INO80 complex subunit) | DRSC15333 | -0.29 | 0.07 | -0.79 | 2.71 |
| Ino80 (INO80 complex subunit) | DRSC15501 | -0.29 | -0.44 | 0.83 | 1.11 |
| PCNA (Proliferating cell nuclear antigen) | DRSC07653 | -0.72 | 0.18 | -2.39 | -3.21 |
| Cln7 | DRSC11005 | 0.34 | -0.19 | -0.52 | -0.52 |
| CG14739 | DRSC14959 | 0.23 | 0.13 | -0.08 | 0.62 |
| dpr15 (defective proboscis extension response 15) | DRSC12891 | 0.04 | 0.01 | 0.35 | -0.16 |
| dpr15 (defective proboscis extension response 15) | DRSC14187 | -1.29 | -1.76 | -1.31 | -1.42 |
| dpr15 (defective proboscis extension response 15) | DRSC14188 | -1.47 | -1.48 | -1.37 | 0.64 |
| emb (embargoed) | DRSC03528 | 2.27 | 1.48 | 0.12 | 2.21 |
| Polr1C (RNA polymerase I and III subunit C) | DRSC02719 | -0.17 | -0.66 | -0.31 | 0.69 |
| eIF3h (eukaryotic translation initiation factor 3 subunit h) | DRSC01995 | -1.18 | -0.84 | -0.32 | 1.2 |
| Pura (Puratrophin-1-like) | DRSC08891 | 0 | 0.98 | 0.47 | 0.17 |
| Pura (Puratrophin-1-like) | DRSC10862 | 0.2 | 0.92 | – | 0.17 |
| Pura (Puratrophin-1-like) | DRSC10864 | 0.79 | 0.18 | – | -0.37 |
| Pura (Puratrophin-1-like) | DRSC10865 | 0.15 | 0.48 | 1.62 | -0.13 |
| Pura (Puratrophin-1-like) | DRSC10866 | 0.44 | 0.58 | 1 | -0.2 |
| Tpc2 | DRSC04322 | -0.33 | -0.26 | 0.74 | 0.1 |
| CtsF (Cathepsin F) | DRSC12056 | -0.24 | 0.93 | 1.09 | 0.18 |
| CtsF (Cathepsin F) | DRSC12195 | 1.03 | 0.42 | 1.69 | -1.21 |
| CtsF (Cathepsin F) | DRSC12196 | -0.13 | -0.04 | -0.99 | 0.08 |
| nwk (nervous wreck) | DRSC10439 | -0.13 | 1.33 | -0.43 | -0.03 |
| nwk (nervous wreck) | DRSC10442 | -0.61 | 0.35 | -0.69 | 0.33 |
| CG6236 | DRSC15999 | 0.12 | -0.04 | -0.86 | 0.74 |
| CG11737 | DRSC14364 | -0.49 | 0.23 | 0.77 | 0.64 |
| HP1Lcsd (Heterochromatin Protein 1L chromoshadow domain) | DRSC03999 | 0.52 | 0.26 | 1.05 | -0.07 |
| Rx (Retinal Homeobox) | DRSC03837 | 0.4 | 0.26 | 0.16 | 0.73 |
| Rx (Retinal Homeobox) | DRSC04652 | 1.01 | 0.52 | 1.63 | -0.44 |
| CG6178 | DRSC15984 | 0.37 | 0.21 | -0.7 | 0.38 |
| dpr16 (defective proboscis extension response 16) | DRSC12217 | -0.25 | 0.02 | -0.87 | 1.04 |
| dpr16 (defective proboscis extension response 16) | DRSC12249 | -0.87 | -0.03 | 0.2 | 0.14 |
| Vha16-1 (Vacuolar H[+] ATPase 16kD subunit 1) | DRSC05020 | -0.31 | 0.07 | -0.68 | 1.01 |
| Hayan | DRSC19989 | 0.19 | 0.25 | 0.39 | -0.73 |
| Hayan | DRSC22231 | 0.03 | 0.56 | 0.71 | 2.5 |
| CG14834 | DRSC10204 | 0.55 | 0 | 0.23 | -0.25 |
| Osi24 (Osiris 24) | DRSC12275 | 0.41 | 0.41 | 0.4 | 0.49 |
| Obp58d (Odorant-binding protein 58d) | DRSC04162 | -0.61 | -0.3 | 0.12 | 0.4 |
| Fdh (Formaldehyde dehydrogenase) | DRSC16670 | 0.7 | 0.87 | -0.15 | 0.87 |
| CG3419 (retired record) | DRSC04368 | -0.01 | -0.52 | 0.29 | 0.2 |
| CG3419 (retired record) | DRSC04369 | -0.16 | -0.54 | -0.61 | 0.18 |
| yata | DRSC15408 | 0.4 | 0.02 | -0.37 | 0.06 |
| CG8501 | DRSC07198 | 0.5 | 0.41 | -0.49 | 0.03 |
| BomS1 (Bomanin Short 1) | DRSC22678 | -2.78 | -0.44 | -1.1 | 0.35 |
| pnr (pannier) | DRSC17027 | 0.6 | -0.03 | -0.32 | 0.37 |
| CG8492 | DRSC10984 | 1.58 | 0.25 | -0.33 | -1.98 |
| CG8492 | DRSC21804 | 0.57 | -0.29 | 0.14 | -0.63 |
| CG15386 + CG42371 | DRSC00400 | 0.42 | 0.42 | 0.32 | 0.3 |
| CG5946 | DRSC10560 | -0.02 | -0.12 | -0.04 | 0.06 |
| CG43095 | DRSC13573 | -1.54 | 0.47 | 1.16 | -0.1 |
| CG13558 | DRSC04196 | -0.3 | 0.13 | 0.21 | 0.12 |
| dpr18 (defective proboscis extension response 18) | DRSC19606 | -0.03 | -0.09 | -0.9 | -0.23 |
| grh (grainy head) | DRSC05680 | 0.37 | 0.98 | 1.8 | 0.88 |
| grh (grainy head) | DRSC05683 | -3.96 | -4.45 | -1.27 | 2.97 |
| grh (grainy head) | DRSC07624 | 0.8 | -0.14 | 0.73 | -0.43 |
| grh (grainy head) | DRSC07625 | 0 | -0.84 | -0.82 | 0.77 |
| Gr59c (Gustatory receptor 59c) | DRSC04185 | 0.16 | 1 | 0.27 | 0.5 |
| Rok (Rho kinase) | DRSC20277 | -1.28 | 0.31 | -0.01 | -0.16 |
| CG13220 | DRSC06342 | -0.42 | -0.26 | -0.74 | -0.22 |
| CG12992 | DRSC19512 | 0.45 | 1.4 | 0.47 | 0.01 |
| CG18744 | DRSC15381 | -0.39 | -0.08 | -0.22 | 0.11 |
| CG32834 | DRSC21929 | 0.36 | -0.15 | -1.2 | -0.15 |
| Hug (Hugin) | DRSC16969 | 0.12 | 0.7 | 0.32 | 0.48 |
| NaPi-III (Na[+]-dependent inorganic phosphate cotransporter type III) | DRSC10893 | -0.25 | 0.24 | 0.2 | -0.1 |
| NaPi-III (Na[+]-dependent inorganic phosphate cotransporter type III) | DRSC10894 | -0.91 | -1.1 | -0.9 | -0.98 |
| NaPi-III (Na[+]-dependent inorganic phosphate cotransporter type III) | DRSC22953 | 1.41 | 0.86 | 0.75 | -0.03 |
| fs(1)Yb (female sterile (1) Yb) | DRSC18777 | 0.45 | -0.54 | -0.6 | 0.13 |
| corolla | DRSC20102 | 0.48 | 0.88 | 0.76 | 0.45 |
| Idgf2 (Imaginal disc growth factor 2) | DRSC03350 | 0.81 | 0.06 | 1.28 | -0.2 |
| Krn (Keren) | DRSC11202 | -1.57 | -2.18 | -0.85 | 1.47 |
| wdp (windpipe) | DRSC04367 | 0 | -0.29 | -0.69 | 0.28 |
| eIF2A (eukaryotic translation initiation factor 2A) | DRSC11825 | -0.33 | -0.7 | – | 0.29 |
| wal (walrus) | DRSC07717 | -0.37 | 0.15 | 1 | 0.1 |

Targets above whose gene name begins with D or d:
| Target gene | dsRNA | replicate 1, z-score of dpERK with insulin | replicate 2, z-score of dpERK with insulin | replicate 1, z-score of dpERK under basal conditions | replicate 1, z-score of ERK-YFP with insulin |
| --- | --- | --- | --- | --- | --- |
| dpr15 (defective proboscis extension response 15) | DRSC12891 | 0.04 | 0.01 | 0.35 | -0.16 |
| dpr15 (defective proboscis extension response 15) | DRSC14187 | -1.29 | -1.76 | -1.31 | -1.42 |
| dpr15 (defective proboscis extension response 15) | DRSC14188 | -1.47 | -1.48 | -1.37 | 0.64 |
| dpr16 (defective proboscis extension response 16) | DRSC12217 | -0.25 | 0.02 | -0.87 | 1.04 |
| dpr16 (defective proboscis extension response 16) | DRSC12249 | -0.87 | -0.03 | 0.2 | 0.14 |
| dpr18 (defective proboscis extension response 18) | DRSC19606 | -0.03 | -0.09 | -0.9 | -0.23 |
